Data: patent US20210371492A1 (INNOVATIVE CELLULAR THERAPEUTICS, published 2021)
Substitutions are numbered along the chain they refer to. Results are given in words; binding and its absence hold for the method and conditions named. For part of these data: Binding calls can cover weak binding; strength is not graded here. Blank lines part the entries; values can stand above or below the binder they belong to.

What was measured:
CTLA4-his [1] = experiment: ELISA, binding specificity, antibody 10ug/ml, OD490; the text calls this non-specific binding
IL4R-his [2] = experiment: as above
ST2-his [3] = experiment: as above
CTLA4-his [4] = experiment: ELISA, binding specificity, single antibody concentration, OD490
IL4R-his [5] = experiment: as above
ST2-his [6] = experiment: as above

binding (CTLA4-his [1]): binds
binding (IL4R-his [2]): binds
binding (ST2-his [3]): binds
B1: R7C8VH/L1B9VK-mIgG2a (antibody, V domains shown)
VH: QVQLQQWGAGLLKPSETLSLTCAVFGGSFSGYYWSWIRQPPGKGLEWIGEINHRGNINDNPSLKSRVTISVDTSKNQFALKLSSVTAADTAVYYCARERGYTYGNYEHWGQGTLVTVSS
VL: EIVMTQSPATLSVSPGERATLSCRASQTVNRNLAWYQQKPGQAPRLLIYGASTRATGIPARFSGSGSGTEFTLTIGSLQSEDFAVYYCQQYKTWPRSFGQGTNVEIK

binding (CTLA4-his [1]): binds
binding (IL4R-his [2]): binds
binding (ST2-his [3]): binds
B2: R7C8VH/L1C9VK-mIgG2a (antibody, V domains shown)
VH: B1 VH
VL: B1 VL with T93N

binding (CTLA4-his [4]): no binding (tested: 10 ug/ml)
binding (IL4R-his [5]): no binding (tested: 10 ug/ml)
binding (ST2-his [6]): no binding (tested: 10 ug/ml)
B3: R8C11VH/L4G6VK-mIgG2a (antibody, V domains shown)
VH: B1 VH with T102S, Y103F, E107D
VL: B1 VL with N30T, T93S
notes: Whole antibody with human variable regions and mouse constant regions (pMABG2a, pMABK); also called R8C11+L4G6

binding (CTLA4-his [4]): no binding (tested: 10 ug/ml)
binding (IL4R-his [5]): no binding (tested: 10 ug/ml)
binding (ST2-his [6]): no binding (tested: 10 ug/ml)
B4: R8C11VH/L3B4VK-mIgG2a (antibody, V domains shown)
VH: B1 VH with T102S, Y103F, E107D
VL: B1 VL with N30T, T93S, S97T
notes: Whole antibody with human variable regions and mouse constant regions (pMABG2a, pMABK); also called R8C11+L3B4
